Measurements as given in patent publication US20100226983A1, “Compositions for treatment and prevention of acne, methods of making the compositions, and methods of use thereof” (NanoBio Corporation, priority 2009, published 2010).
For at least one compound, name, drawing or mass did not settle the structure. Some results were stated once for a whole list of compounds, not compound by compound.

Key:
P. acnes [1] = assay: MIC and MBC against 16 clinical isolates of P. acnes (broth microdilution, no sebum); assay type: cell-based, Propionibacterium acnes; conditions: for isolates resistant: share of the P. acnes isolates resistant to the drug
Description: The nanoemulsions (“NB-00X”) comprised, in an aqueous medium, soybean oil, Tween 20® as a nonionic surfactant, ethanol, cetylpyridinium chloride (CPC) as a cationic surfactant, EDTA, and water, and optionally, a thickening agent for the gel formulation.
Each dilution contained varying concentrations of soybean oil, Tween 20®, ethanol, CPC, and EDTA. Combination products were also evaluated; stock emulsions containing NB-00X gel (3 mg CPC/ml)+2% salicyclic acid or NB-00X gel+0.5% benzoyl peroxide (BPO) were serially diluted two-fold and each concentration was tested against 16 P. acnes isolates. In general, the standard methodology was followed for MIC and MBC determination.
Weighing of drugs and potency calculations were done as prescribed by Clinical and Laboratory Standards Institute (1). Dimethyl sulfoxide (DMSO) was used to prepare stock solutions of the water-insoluble compound tetracycline at 100× concentrations. […] Stock solutions of chlorhexidine and NB-00X were prepared at a 4× concentration in DI water.
To prepare intermediate concentrations, 100× stock solutions were serially diluted 1:1 using DMSO or DI water. Final concentrations were made by 1:50 or 1:1 dilutions in Wilkin Chalgren media (1) to give 2× of the test concentrations, with final DMSO concentrations at 1%. 50 μl of these drug concentrations were transferred to 96-well plates using multi-channel pipettes.
P. acnes strains grown on sheep blood agar for 24-48 hrs at 35° C. were used as the sources of inocula for susceptibility studies as per Clinical and Laboratory Standards Institute. […] Within 15 minutes, each well (except the negative growth controls) of the microtiter tray containing the serial dilutions of test compounds received 50 μl of inoculum, resulting into a log2 dilution of both drug and bug in each well. […]
Microtiter and blood agar plates were incubated at 35-37° C. for 48 h in a 7.0 L AnaeroPack Jar (Mitsubishi gas chemical; No. 50-70) fitted with an anaerobic gas generating system (Misubishi, No. 10-01) and a dry anaerobic indicator strip (BBL, Becton, Dickinson & Co. #271051). MICs were read visually using a 96-well plate reader fitted with a magnifying mirror (Biodesign of New York). Because of the opacity of benzoyl peroxide, 20 μl of Cell Titer Blue (alamar blue from Promega G8080) was added after 48 hrs; the plates were incubated for an additional hour prior to reading. Colony-forming units were counted after 72 h of incubation to ensure that the initial inocula were between 2-5×10^6 cfu/ml.
The minimal bactericidal concentrations (MBC) for P. acnes were determined by plating 10 μl from the well determined to be the MIC plus 4 wells above the MIC on blood-supplemented Mueller-Hinton agar plate. […]

P. acnes [2] = assay: MIC and MBC against 16 P. acnes isolates in the presence of 50% artificial sebum; assay type: cell-based, Propionibacterium acnes; conditions: 50% sebum versus no sebum; up to the concentrations tested
Description: The nanoemulsions (“NB-002”) comprised, in an aqueous medium, soybean oil, Tween 20® as a nonionic surfactant, ethanol, cetylpyridinium chloride (CPC) as a cationic surfactant, EDTA, and water. Artificial sebum was prepared by adding the entire ingredients given in the Table 6 and heating at 60° C. in a water bath, with intermittent stirring until all solids melted resulting in to a clear yellow liquid ([…] et al., “Diffusion properties of model compounds in artificial sebum. Int. J. Pharm., 345:88-94 (2007)). To prepare intermediate concentrations, 100× stock solutions were serially diluted 1:1 using DMSO or DI water. Final concentrations were made by 1:50 dilutions in Wilkin Chalgren media to give 2× of the final test concentrations, with final DMSO concentrations at 1%. 50 μl of these drug concentrations were transferred to 96-well plates using multi-channel pipettes. Sebum was prewarmed to 50° C. and each well received 45 μl of sebum. After ten minutes at 35° C., five microliters of a P. acnes culture at 10^8 colony-forming units/ml was added to each well.

[3] = 16 P. acnes isolates, no sebum, NB-00X formulations as μg CPC/ml

SMILES	isolates resistant (P. acnes [1])	impact of sebum on microbiological activity (MIC90/MBC90) (P. acnes [2])	MBC Range (P. acnes [1]; [3])	MIC Range (P. acnes [1]; [3])
CC[C@H]1OC(=O)[C@H](C)[C@@H](O[C@H]2C[C@@](C)(OC)[C@@H](O)[C@H](C)O2)[C@H](C)[C@@H](O[C@@H]2O[C@H](C)C[C@H](N(C)C)[C@H]2O)[C@](C)(O)C[C@@H](C)C(=O)[C@H](C)[C@@H](O)[C@]1(C)O [Erythromycin, erythromycin]	Greater than 50%	–	–	–
CCC[C@@H]1C[C@@H](C(=O)N[C@@H]([C@H]2O[C@H](SC)[C@H](O)[C@@H](O)[C@H]2O)[C@H](C)Cl)N(C)C1 [Clindamycin, clindamycin]	Greater than 50%	did not impact	–	–
CN(C)[C@@H]1C(O)=C(C(N)=O)C(=O)[C@@]2(O)C(O)=C3C(=O)c4c(O)cccc4[C@@](C)(O)[C@H]3C[C@@H]12 [Tetracycline, tetracycline]	–	did not impact	>1->32	≦0.063->32
